For two molecules, binding results are on record in paper doi:10.1101/2022.09.22.509106.

Results are given in words; binding and its absence hold for the method and conditions named. Sequences can lack the tags named with a protein.

The experiment deals with T1, purified human complement C2 (human) (UniProt P06681).
T1 sequence: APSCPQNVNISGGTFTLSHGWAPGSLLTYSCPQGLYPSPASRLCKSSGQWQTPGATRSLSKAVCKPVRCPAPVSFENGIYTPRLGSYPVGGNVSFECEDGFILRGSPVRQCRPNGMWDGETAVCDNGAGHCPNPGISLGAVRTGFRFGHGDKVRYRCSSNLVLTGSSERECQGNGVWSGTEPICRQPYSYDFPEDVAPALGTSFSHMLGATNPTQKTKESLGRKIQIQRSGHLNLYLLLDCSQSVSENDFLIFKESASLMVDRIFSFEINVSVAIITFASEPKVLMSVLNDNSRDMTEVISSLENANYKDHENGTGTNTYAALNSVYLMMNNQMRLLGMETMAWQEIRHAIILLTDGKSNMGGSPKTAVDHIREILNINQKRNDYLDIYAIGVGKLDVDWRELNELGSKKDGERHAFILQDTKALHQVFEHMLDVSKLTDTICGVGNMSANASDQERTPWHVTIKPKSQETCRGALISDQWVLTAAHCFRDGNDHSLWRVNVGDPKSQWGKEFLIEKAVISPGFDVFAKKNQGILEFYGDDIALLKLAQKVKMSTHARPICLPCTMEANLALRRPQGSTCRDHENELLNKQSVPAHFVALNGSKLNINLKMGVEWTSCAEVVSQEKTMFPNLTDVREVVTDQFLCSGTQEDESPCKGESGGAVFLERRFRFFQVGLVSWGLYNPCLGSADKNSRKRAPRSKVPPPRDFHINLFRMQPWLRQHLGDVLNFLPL
The experiment in a line: ELISA. In general terms: An ELISA detects its analyte on a solid surface through an enzyme-linked reagent.

B1: neuronal pentraxin 1 (Nptx1), purified recombinant, His-tagged (protein, UniProt Q15818 23-432)
chain: QDFGPTRFICTSVPVDADMCAASVAAGGAEELRSSVLQLRETVLQQKETILSQKETIRELTAKLGRCESQSTLDPGAGEARAGGGRKQPGSGKNTMGDLSRTPAAETLSQLGQTLQSLKTRLENLEQYSRLNSSSQTNSLKDLLQSKIDELERQVLSRVNTLEEGKGGPRNDTEERVKIETALTSLHQRISELEKGQKDNRPGDKFQLTFPLRTNYMYAKVKKSLPEMYAFTVCMWLKSSATPGVGTPFSYAVPGQANELVLIEWGNNPMEILINDKVAKLPFVINDGKWHHICVTWTTRDGVWEAYQDGTQGGSGENLAPYHPIKPQGVLVLGQEQDTLGGGFDATQAFVGELAHFNIWDRKLTPGEVYNLATCSTKALSGNVIAWAESHIEIYGGATKWTFEACRQIN
Take B1: the binding result was “no binding (tested: 4 µg/mL)”.

B2: neuronal pentraxin 2 (Nptx2), purified recombinant, His-tagged (protein, UniProt P47972 16-431)
chain: GAQDSPAPGSRFVCTALPPEAVHAGCPLPAMPMQGGAQSPEEELRAAVLQLRETVVQQKETLGAQREAIRELTGKLARCEGLAGGKARGAGATGKDTMGDLPRDPGHVVEQLSRSLQTLKDRLESLEHQLRANVSNAGLPGDFREVLQQRLGELERQLLRKVAELEDEKSLLHNETSAHRQKTESTLNALLQRVTELERGNSAFKSPDAFKVSLPLRTNYLYGKIKKTLPELYAFTICLWLRSSASPGIGTPFSYAVPGQANEIVLIEWGNNPIELLINDKVAQLPLFVSDGKWHHICVTWTTRDGMWEAFQDGEKLGTGENLAPWHPIKPGGVLILGQEQDTVGGRFDATQAFVGELSQFNIWDRVLRAQEIVNIANCSTNMPGNIIPWVDNNVDVFGGASKWPVETCEERLLDL
Regarding B2, the binding entry is “no binding (tested: 4 µg/mL)”.
